Laboratory results reported in US20030219467A1, “Method for the inhibition of methanogensis” (The Board of Regents of the University of Nebraska, priority 2001, published 2003).

Tested on: ruminal organisms

CCNc1ccc(C(=O)O)cc1 [4-(ethylamino)benzoate]
acetate level relative to controls: elevated
propionate level relative to controls: elevated
